Data on two substances can be found in PMC3189125.

Sequences of proteins named here, by UniProt entry; tags and fusion partners are left off.
UniProt P21244: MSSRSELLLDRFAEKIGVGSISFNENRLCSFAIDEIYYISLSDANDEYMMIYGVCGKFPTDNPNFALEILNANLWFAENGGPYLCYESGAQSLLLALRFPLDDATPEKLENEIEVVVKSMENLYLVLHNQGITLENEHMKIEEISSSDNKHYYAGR
UniProt B7UM99: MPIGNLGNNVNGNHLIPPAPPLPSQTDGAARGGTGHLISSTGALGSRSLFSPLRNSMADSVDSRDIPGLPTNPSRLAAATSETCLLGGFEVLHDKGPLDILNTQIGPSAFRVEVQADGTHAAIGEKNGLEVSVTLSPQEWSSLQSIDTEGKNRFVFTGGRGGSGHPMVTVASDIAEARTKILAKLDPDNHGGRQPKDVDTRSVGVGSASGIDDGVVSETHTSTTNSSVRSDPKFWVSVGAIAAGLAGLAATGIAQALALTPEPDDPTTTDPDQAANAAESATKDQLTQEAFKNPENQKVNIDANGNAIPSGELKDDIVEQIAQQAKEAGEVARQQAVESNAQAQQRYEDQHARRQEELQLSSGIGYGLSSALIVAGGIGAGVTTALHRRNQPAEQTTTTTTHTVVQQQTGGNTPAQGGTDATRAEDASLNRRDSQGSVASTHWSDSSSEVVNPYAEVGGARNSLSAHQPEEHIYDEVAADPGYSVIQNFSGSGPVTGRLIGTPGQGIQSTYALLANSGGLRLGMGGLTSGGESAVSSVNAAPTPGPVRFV

Results are given in words; binding and its absence hold for the method and conditions named. Binding seen in cells or lysates may run through a third protein. Some entries that bind do so weakly or less than the wild type.

The test addresses CesT, multicargo type III secretion chaperone (enteropathogenic E. coli E2348/69 (endogenous in EPEC)) (UniProt P21244). Kind of test: co-IP; affinity purified polyclonal anti-CesT antibody on Protein A agarose beads, added to EPEC cell lysates, overnight at 4°C, washed 3 times with PBS, eluted with 100 mM glycine pH 2.2; elution fractions immunoblotted.

Consider “HA-EscU-FLAG (auto-cleaved EscU) (from UniProt Q9AJ26 1-262; Q9AJ26 263-345)”, for which the binding entry is reported as “no binding”.
In the case of “Tir, type III effector (from UniProt B7UM99 1-550)”, the binding result is on record as “binds”.
